Test results as given in article PMC12499488.
These are yes or no findings as the source states them, for the method shown. In cells and extracts the contact can be indirect. Some binding calls cover weakened binding; strength is not graded here. Values belong to the substance of their own block, whether it stands above or below them.

Protein sequences, listed by entry. Tags and fused reporters are not part of them.
UniProt F7F8L9: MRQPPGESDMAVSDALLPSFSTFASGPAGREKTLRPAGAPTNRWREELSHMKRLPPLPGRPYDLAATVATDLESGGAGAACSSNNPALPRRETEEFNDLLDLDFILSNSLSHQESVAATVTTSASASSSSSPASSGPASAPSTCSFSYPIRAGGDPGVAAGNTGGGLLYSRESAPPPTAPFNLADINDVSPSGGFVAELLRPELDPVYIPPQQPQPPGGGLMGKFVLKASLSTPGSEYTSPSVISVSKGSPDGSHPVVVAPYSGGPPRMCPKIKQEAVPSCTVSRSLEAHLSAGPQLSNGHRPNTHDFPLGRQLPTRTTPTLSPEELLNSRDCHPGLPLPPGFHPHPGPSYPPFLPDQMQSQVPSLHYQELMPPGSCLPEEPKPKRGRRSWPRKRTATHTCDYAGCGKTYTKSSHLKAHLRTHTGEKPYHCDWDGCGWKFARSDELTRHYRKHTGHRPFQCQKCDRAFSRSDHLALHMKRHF
UniProt P47196: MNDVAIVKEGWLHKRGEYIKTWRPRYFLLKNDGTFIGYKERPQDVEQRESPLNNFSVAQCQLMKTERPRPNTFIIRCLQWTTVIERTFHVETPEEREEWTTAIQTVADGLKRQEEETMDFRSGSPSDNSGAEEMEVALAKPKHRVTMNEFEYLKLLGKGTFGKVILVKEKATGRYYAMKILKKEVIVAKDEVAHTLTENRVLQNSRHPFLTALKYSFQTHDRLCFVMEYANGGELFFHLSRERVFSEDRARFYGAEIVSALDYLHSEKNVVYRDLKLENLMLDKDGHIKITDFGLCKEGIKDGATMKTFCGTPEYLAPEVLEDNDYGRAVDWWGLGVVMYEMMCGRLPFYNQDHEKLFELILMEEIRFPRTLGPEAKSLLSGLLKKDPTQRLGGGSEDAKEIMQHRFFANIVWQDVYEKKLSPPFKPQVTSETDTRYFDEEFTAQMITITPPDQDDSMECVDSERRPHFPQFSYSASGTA
UniProt P63331: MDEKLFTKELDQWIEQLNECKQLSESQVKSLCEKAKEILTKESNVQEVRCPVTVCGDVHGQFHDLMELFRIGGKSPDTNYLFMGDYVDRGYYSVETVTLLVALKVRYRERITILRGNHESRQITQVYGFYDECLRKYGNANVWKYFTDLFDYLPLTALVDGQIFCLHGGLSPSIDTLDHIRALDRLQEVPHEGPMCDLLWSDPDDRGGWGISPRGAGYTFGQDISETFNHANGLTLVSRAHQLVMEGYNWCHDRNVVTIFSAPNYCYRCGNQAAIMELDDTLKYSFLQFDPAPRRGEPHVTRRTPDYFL

Experiments:
Assay in all cases: co-IP; endogenous proteins of primary rat VSMCs; NP40 lysate incubated overnight at 4 °C with the primary antibody (or control IgG), protein A/G plus-agarose 5 h at 4 °C, three washes, Western blot
[1] = molecular target: Kruppel-like factor 4 (KLF4), endogenous in rat VSMCs (rat (endogenous in primary rat VSMCs)) (UniProt F7F8L9)
[2] = molecular target: Protein kinase B 1 (AKT1), endogenous in rat VSMCs (rat (endogenous in primary rat VSMCs)) (UniProt P47196)
[3] = molecular target: PP2Acα (protein phosphatase 2A catalytic subunit C, α isoform), endogenous in rat VSMCs (rat (endogenous in primary rat VSMCs)) (UniProt P63331)

binding [1]: no binding
Substance: PP2Acα (protein phosphatase 2A catalytic subunit C, α isoform), endogenous in rat VSMCs (from UniProt P63331 1-309) (enzyme)

binding [2]: binds
Substance: Kruppel-like factor 4 (KLF4), endogenous in rat VSMCs (from UniProt F7F8L9 1-482)

binding [3]: binds
Substance: Protein kinase B 1 (AKT1), endogenous in rat VSMCs (from UniProt P47196 1-480) (enzyme)
